These are yes or no findings as the source states them, for the method shown. In cells and extracts the contact can be indirect. For some assays here: Binding can be weak; no strength is given.
How the values were obtained:
GFP-ATG2A-ΔMLD (human) = GFP-ATG2A-ΔMLD (human) (UniProt Q2TAZ0); assay: co-IP; HeLa cells transfected with GFP-tagged constructs; lysis in 20 mM Tris–HCl pH 7.4, 100 mM NaCl, 0.5 mM EDTA, 0.5% NP40; GFP-TRAP beads (ChromoTek); endogenous partners found by western blot
GFP-ATG2A-YFS (human) = GFP-ATG2A-YFS (human) (UniProt Q2TAZ0); assay: as above

Protein sequences, listed by entry. Tags and fused reporters are not part of them. Lines headed by an entry give the natural chain unless they say otherwise; changes in a name come on top.
UniProt Q2TAZ0: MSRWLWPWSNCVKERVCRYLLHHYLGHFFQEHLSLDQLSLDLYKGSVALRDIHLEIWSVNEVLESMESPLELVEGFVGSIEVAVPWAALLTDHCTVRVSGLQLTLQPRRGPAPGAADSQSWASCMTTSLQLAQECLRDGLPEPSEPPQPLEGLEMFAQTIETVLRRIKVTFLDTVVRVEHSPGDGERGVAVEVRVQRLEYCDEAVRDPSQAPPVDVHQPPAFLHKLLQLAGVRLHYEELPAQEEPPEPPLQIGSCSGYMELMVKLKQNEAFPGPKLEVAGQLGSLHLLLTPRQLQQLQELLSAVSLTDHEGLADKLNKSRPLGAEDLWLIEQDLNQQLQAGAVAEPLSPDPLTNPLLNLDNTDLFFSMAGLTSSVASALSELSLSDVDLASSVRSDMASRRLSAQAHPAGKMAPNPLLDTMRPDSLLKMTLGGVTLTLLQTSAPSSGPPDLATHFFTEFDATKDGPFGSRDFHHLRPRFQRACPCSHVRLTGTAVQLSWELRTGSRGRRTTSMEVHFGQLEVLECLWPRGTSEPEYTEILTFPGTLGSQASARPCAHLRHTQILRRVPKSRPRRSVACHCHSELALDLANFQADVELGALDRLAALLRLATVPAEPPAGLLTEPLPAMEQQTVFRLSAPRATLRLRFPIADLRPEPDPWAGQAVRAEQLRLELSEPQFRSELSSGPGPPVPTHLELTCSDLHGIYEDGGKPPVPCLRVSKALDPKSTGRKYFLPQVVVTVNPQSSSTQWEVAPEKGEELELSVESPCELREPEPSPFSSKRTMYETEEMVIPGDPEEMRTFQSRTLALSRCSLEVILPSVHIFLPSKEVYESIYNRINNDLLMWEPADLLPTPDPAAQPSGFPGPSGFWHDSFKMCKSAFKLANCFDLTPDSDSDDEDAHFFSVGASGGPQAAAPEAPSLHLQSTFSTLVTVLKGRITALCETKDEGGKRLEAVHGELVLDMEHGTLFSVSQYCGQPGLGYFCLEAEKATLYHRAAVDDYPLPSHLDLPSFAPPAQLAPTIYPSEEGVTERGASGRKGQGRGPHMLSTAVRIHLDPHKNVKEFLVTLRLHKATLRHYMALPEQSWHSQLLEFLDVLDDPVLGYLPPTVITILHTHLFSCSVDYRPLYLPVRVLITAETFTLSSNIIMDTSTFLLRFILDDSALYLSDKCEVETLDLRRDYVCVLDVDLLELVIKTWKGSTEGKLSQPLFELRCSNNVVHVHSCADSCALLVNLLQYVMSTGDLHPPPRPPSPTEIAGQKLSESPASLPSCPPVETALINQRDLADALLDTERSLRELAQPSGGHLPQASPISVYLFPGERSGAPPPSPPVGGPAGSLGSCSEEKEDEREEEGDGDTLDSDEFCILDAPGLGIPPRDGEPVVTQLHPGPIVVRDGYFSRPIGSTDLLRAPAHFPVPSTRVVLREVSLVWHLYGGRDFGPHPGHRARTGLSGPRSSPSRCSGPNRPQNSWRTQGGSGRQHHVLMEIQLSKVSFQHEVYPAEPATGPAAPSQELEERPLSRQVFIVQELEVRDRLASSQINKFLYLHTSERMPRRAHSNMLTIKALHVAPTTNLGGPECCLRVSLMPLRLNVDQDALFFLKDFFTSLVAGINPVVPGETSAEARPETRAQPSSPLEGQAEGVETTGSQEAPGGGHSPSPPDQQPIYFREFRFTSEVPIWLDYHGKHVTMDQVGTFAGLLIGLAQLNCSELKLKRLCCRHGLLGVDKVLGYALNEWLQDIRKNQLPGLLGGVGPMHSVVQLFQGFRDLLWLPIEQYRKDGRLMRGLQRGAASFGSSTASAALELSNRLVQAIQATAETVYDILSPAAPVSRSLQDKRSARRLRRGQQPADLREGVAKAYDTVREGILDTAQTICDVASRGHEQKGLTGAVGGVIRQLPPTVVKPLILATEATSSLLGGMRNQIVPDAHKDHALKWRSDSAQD

- binding (GFP-ATG2A-ΔMLD (human)): no binding
- binding (GFP-ATG2A-YFS (human)): binds
B1: TOMM40 (endogenous) (protein, UniProt O96008 1-361)
chain: MGNVLAASSPPAGPPPPPAPALVGLPPPPPSPPGFTLPPLGGSLGAGTSTSRSSERTPGAATASASGAAEDGACGCLPNPGTFEECHRKCKELFPIQMEGVKLTVNKGLSNHFQVNHTVALSTIGESNYHFGVTYVGTKQLSPTEAFPVLVGDMDNSGSLNAQVIHQLGPGLRSKMAIQTQQSKFVNWQVDGEYRGSDFTAAVTLGNPDVLVGSGILVAHYLQSITPCLALGGELVYHRRPGEEGTVMSLAGKYTLNNWLATVTLGQAGMHATYYHKASDQLQVGVEFEASTRMQDTSVSFGYQLDLPKANLLFKGSVDSNWIVGATLEKKLPPLPLTLALGAFLNHRKNKFQCGFGLTIG

From paper PMC11021183
